Measured values published in doi:10.1101/2024.05.16.594269.

Amino acid sequences for entries named in this document (tags omitted). A change or cut given only in a name is not applied to a line headed by its entry.
UniProt Q96A61: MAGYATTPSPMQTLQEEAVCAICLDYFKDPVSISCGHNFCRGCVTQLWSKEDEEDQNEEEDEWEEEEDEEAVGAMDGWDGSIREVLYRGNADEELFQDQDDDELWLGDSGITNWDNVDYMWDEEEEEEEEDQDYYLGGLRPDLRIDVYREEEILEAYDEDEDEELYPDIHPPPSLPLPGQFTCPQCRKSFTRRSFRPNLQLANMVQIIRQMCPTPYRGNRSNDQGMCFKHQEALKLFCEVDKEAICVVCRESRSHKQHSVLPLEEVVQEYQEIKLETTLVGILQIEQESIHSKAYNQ
UniProt Q9NR09: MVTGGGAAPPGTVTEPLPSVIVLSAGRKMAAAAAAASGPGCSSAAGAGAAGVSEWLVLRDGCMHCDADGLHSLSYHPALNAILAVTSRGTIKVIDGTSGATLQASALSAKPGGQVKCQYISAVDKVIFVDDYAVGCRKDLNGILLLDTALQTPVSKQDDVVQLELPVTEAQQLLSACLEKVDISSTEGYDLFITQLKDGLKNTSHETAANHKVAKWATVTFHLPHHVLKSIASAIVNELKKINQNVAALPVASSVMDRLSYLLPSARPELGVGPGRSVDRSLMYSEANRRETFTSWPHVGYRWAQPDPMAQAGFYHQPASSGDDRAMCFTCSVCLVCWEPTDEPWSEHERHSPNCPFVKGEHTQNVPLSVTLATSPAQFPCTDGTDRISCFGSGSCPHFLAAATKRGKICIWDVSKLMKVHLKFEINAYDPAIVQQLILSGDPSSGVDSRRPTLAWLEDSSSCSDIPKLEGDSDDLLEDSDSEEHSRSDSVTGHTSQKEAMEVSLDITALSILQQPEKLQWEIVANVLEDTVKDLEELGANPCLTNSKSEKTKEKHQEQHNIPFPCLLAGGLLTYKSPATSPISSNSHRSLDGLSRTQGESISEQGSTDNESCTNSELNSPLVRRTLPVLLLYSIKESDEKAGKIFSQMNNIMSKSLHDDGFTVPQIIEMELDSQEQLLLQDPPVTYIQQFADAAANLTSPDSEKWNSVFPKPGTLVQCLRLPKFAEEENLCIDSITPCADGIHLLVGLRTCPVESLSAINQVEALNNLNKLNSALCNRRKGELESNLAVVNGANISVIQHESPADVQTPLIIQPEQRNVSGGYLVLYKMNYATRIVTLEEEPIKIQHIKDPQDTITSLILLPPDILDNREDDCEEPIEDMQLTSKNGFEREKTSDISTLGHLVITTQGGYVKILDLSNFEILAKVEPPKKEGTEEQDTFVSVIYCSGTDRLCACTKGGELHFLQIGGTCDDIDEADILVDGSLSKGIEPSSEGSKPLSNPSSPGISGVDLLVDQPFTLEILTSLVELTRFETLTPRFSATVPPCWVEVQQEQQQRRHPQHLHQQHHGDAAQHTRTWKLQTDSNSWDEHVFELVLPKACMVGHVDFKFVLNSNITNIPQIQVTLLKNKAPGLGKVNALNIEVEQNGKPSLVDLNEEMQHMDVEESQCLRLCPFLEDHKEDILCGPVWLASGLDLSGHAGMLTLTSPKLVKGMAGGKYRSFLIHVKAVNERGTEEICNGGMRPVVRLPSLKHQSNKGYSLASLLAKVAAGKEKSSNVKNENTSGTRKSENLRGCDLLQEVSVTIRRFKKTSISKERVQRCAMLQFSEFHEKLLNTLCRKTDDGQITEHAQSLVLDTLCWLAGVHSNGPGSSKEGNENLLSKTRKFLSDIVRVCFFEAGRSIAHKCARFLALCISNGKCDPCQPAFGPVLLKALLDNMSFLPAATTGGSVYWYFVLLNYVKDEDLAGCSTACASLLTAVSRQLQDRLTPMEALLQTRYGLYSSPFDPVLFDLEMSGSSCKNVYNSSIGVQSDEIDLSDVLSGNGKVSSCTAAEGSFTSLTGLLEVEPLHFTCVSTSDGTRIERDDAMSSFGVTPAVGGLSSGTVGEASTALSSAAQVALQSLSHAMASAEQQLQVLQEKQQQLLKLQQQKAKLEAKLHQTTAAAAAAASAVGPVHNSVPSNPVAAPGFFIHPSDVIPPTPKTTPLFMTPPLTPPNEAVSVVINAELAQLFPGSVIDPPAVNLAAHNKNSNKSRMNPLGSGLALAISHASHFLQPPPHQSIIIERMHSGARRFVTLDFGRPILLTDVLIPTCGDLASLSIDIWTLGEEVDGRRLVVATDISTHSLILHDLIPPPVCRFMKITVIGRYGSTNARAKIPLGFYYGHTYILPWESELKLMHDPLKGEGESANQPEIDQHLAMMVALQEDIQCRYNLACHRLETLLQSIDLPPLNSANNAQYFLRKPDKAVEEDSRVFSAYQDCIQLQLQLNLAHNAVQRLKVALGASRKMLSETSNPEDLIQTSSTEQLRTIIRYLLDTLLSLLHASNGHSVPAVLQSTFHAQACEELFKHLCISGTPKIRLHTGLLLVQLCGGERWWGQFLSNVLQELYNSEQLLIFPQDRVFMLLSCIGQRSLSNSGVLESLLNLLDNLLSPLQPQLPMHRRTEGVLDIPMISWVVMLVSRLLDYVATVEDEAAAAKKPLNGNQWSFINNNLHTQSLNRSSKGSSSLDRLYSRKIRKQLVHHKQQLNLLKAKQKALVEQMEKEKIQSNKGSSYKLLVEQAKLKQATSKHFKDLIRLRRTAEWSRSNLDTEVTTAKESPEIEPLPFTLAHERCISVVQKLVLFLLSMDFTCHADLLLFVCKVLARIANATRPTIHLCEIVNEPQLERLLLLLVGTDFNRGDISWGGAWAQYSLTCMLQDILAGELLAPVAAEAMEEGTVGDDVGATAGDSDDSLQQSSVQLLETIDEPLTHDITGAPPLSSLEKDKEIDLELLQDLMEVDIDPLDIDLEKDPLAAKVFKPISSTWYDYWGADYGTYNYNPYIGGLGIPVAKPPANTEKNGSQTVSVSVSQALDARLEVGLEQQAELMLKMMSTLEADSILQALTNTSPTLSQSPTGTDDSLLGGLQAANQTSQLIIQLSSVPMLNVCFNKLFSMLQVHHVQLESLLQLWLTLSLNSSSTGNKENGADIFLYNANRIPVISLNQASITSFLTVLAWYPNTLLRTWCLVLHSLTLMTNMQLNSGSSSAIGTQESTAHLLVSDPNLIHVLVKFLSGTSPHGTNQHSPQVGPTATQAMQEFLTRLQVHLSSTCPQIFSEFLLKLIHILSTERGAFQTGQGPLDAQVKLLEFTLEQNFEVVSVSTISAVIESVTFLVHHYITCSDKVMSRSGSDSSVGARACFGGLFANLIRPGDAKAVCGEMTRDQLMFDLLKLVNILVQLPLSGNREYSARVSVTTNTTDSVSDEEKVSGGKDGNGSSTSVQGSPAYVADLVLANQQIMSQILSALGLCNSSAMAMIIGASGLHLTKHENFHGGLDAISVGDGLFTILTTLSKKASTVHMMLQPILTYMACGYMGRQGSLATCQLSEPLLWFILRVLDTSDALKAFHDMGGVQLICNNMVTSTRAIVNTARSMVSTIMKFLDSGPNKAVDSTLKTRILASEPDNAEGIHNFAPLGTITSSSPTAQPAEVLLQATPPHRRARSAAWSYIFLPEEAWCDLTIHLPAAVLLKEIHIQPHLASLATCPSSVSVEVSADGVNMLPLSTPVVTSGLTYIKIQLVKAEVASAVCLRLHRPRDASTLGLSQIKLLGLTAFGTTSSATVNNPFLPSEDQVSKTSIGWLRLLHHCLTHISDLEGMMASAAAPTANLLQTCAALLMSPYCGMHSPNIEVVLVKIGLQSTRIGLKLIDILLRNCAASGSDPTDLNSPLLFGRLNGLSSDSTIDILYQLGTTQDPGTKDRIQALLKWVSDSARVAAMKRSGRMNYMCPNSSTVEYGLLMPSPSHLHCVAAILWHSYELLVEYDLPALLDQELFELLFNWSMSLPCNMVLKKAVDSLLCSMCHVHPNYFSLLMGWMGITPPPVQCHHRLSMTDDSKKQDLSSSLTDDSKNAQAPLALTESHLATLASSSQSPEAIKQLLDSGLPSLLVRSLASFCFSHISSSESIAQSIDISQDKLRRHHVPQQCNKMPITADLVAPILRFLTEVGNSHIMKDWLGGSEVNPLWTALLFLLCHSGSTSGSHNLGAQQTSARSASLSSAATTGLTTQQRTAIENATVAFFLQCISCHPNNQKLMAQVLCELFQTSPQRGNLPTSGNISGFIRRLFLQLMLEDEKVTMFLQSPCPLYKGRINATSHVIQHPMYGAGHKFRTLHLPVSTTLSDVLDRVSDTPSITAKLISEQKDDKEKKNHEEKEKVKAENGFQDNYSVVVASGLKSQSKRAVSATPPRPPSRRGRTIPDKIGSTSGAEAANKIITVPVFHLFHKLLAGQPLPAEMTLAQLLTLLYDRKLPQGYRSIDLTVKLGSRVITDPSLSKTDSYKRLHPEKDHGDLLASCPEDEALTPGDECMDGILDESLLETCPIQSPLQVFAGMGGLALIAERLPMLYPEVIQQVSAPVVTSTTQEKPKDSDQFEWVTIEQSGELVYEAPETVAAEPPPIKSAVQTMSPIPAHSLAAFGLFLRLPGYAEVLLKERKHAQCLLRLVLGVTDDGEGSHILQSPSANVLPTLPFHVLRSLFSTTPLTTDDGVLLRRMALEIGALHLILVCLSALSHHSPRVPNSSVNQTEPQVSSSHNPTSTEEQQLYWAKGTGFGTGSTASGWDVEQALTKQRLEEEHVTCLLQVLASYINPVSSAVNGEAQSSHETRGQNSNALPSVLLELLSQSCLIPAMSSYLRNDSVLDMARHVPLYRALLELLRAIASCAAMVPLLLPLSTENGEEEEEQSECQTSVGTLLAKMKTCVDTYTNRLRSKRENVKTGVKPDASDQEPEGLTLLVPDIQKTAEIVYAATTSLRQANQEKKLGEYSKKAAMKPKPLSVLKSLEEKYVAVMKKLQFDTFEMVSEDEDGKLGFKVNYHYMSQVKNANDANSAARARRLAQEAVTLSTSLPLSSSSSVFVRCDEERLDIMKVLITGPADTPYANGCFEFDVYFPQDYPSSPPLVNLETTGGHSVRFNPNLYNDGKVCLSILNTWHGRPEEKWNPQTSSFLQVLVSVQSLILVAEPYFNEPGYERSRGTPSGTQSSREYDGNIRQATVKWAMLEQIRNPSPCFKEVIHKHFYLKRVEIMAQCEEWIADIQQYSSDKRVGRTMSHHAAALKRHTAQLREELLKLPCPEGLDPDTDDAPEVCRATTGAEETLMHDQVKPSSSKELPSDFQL

Target: TRIM52 (ΔLoop2), HA-tagged (human) (UniProt Q96A61)
Assay: co-IP

Question: With “BIRC6 (endogenous) (from UniProt Q9NR09 1-4857) (enzyme)” as the substance, how does the binding read?
Answer: Its binding is “binds”.

Results are given in words; binding and its absence hold for the method and conditions named. Binding seen in cells or lysates may run through a third protein. A result given as binding can be weak or reduced; the word gives no strength.
